Compound in the experiment: Nc1ncnc2c1ncn2[C@@H]1O[C@H](COP(=O)(O)OP(=O)(O)OP(=O)(O)O)[C@@H](O)[C@H]1O [adenosine triphosphate]
Kind of experiment: NP40-soluble protein abundance relative to vehicle (solubility fold change) (ratio); higher = more soluble protein in presence of ATP. Summed up: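 Each value is a fold change relative to the detergent-processed vehicle, calculated per replicate from vsn-normalised intensities. Jurkat crude lysate received eight concentrations (0.1 to 10 mM) for 10 min at room temperature and 3 min at 37 °C, then was solubilised in 0.8% NP40 with benzonase (60 min, 4 °C). The ultracentrifuged supernatant was TMT-labelled and run by LC-MS/MS in three independent experiments.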

The chains behind the UniProt entries cited, without tags or fusion partners. Where a name states a change or a piece, a line headed by the entry shows the natural chain unless it says otherwise.
UniProt Q14498: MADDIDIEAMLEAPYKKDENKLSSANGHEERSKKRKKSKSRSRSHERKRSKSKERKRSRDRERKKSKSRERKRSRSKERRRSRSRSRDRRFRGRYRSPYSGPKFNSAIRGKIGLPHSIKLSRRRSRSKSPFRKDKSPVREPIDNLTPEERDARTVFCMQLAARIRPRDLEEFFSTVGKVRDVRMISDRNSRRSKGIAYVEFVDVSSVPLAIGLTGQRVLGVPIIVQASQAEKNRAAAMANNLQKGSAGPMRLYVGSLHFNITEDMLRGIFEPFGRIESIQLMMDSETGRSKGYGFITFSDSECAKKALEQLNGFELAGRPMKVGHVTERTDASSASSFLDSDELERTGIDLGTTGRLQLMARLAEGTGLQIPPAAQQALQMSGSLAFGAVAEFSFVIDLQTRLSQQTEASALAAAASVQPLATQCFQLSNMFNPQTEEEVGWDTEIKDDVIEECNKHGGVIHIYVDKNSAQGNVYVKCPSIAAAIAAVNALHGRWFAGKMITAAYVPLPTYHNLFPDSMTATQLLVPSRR
UniProt Q15036: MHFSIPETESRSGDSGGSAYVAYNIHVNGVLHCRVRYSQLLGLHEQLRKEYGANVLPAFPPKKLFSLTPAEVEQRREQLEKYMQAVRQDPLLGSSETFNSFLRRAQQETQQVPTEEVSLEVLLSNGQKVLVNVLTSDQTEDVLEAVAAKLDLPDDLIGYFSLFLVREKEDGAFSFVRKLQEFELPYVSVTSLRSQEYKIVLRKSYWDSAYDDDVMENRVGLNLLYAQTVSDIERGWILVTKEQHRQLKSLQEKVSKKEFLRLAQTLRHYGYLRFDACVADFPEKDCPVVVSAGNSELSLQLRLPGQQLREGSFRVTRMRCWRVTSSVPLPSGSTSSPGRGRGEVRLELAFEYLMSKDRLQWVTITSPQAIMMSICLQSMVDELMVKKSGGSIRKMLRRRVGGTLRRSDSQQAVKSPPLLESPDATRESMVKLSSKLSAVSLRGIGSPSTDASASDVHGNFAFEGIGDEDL
UniProt Q15427: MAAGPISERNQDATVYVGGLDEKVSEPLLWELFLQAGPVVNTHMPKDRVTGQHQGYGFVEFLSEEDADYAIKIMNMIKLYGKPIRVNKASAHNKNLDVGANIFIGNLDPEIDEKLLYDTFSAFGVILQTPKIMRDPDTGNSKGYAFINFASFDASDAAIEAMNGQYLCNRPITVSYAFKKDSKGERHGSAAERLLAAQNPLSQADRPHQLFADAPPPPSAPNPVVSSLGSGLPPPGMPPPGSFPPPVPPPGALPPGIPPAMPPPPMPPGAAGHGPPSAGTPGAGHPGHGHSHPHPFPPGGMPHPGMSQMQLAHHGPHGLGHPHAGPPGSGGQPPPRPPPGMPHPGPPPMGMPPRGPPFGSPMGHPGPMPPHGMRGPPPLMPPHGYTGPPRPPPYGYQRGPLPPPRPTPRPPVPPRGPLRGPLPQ
UniProt Q14807: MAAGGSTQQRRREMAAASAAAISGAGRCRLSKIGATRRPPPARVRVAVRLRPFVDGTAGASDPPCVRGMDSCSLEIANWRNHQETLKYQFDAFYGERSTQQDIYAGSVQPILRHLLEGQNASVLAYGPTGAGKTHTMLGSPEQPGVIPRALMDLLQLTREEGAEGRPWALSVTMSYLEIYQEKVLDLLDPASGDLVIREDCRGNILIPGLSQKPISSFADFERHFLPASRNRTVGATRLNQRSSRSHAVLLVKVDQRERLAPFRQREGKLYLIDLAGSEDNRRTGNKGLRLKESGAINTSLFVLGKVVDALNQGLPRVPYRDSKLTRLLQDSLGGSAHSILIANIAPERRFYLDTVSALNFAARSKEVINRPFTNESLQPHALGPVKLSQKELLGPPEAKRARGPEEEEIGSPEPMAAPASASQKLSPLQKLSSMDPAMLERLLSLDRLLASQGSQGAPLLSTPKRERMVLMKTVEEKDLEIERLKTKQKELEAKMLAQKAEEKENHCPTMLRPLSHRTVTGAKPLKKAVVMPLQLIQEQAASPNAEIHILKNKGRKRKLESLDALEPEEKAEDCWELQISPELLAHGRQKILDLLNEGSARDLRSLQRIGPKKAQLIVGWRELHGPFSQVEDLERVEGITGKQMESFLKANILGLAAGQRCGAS
UniProt Q15008: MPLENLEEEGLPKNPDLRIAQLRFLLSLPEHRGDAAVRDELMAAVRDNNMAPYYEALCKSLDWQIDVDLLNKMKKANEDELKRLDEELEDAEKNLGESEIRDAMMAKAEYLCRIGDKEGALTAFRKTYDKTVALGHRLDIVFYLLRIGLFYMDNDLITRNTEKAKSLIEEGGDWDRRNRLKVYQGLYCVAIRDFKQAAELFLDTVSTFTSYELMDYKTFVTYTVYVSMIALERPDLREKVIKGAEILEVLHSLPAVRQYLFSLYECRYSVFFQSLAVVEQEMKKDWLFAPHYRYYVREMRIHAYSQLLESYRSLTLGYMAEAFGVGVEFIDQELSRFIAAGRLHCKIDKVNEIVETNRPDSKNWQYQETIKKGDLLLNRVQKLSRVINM
UniProt Q16181: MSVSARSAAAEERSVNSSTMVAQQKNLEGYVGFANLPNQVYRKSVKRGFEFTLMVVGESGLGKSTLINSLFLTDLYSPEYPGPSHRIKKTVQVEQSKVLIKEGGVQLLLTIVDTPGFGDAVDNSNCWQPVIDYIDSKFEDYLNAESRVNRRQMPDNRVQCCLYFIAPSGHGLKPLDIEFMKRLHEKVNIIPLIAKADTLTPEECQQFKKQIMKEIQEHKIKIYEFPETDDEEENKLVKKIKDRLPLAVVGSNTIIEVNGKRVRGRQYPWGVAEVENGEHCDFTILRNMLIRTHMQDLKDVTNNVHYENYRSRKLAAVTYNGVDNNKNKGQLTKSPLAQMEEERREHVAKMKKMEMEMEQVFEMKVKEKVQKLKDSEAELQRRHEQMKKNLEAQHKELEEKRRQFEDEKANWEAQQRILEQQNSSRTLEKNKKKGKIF
UniProt Q15029: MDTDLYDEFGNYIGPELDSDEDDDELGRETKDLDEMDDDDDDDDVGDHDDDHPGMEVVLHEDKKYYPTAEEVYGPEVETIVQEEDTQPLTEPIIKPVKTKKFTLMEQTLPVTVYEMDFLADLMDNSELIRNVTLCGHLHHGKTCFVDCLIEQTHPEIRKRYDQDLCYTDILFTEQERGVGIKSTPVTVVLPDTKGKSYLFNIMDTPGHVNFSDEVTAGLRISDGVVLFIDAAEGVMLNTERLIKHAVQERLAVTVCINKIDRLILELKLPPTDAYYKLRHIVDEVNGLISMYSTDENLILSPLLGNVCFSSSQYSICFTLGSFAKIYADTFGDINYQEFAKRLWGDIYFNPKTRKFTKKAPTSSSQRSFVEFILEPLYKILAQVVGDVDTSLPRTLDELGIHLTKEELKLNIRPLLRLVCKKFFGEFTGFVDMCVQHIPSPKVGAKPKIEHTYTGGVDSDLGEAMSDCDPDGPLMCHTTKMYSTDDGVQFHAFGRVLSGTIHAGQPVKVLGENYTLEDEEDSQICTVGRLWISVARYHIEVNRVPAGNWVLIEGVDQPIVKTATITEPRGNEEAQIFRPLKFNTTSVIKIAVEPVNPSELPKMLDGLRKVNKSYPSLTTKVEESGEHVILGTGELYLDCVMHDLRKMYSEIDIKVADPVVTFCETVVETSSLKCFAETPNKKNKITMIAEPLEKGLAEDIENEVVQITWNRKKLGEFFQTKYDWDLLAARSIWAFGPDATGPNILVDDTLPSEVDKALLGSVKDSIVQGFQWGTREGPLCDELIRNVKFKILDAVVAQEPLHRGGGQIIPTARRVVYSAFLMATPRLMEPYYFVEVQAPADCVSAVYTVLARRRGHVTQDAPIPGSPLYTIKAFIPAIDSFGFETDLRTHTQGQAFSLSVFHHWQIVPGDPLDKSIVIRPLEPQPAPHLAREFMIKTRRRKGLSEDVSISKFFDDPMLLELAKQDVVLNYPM
UniProt Q14657: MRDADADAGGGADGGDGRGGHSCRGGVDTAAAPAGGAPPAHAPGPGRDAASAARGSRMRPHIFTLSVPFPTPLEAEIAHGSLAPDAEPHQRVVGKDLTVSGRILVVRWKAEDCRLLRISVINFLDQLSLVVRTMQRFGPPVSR
UniProt Q14676: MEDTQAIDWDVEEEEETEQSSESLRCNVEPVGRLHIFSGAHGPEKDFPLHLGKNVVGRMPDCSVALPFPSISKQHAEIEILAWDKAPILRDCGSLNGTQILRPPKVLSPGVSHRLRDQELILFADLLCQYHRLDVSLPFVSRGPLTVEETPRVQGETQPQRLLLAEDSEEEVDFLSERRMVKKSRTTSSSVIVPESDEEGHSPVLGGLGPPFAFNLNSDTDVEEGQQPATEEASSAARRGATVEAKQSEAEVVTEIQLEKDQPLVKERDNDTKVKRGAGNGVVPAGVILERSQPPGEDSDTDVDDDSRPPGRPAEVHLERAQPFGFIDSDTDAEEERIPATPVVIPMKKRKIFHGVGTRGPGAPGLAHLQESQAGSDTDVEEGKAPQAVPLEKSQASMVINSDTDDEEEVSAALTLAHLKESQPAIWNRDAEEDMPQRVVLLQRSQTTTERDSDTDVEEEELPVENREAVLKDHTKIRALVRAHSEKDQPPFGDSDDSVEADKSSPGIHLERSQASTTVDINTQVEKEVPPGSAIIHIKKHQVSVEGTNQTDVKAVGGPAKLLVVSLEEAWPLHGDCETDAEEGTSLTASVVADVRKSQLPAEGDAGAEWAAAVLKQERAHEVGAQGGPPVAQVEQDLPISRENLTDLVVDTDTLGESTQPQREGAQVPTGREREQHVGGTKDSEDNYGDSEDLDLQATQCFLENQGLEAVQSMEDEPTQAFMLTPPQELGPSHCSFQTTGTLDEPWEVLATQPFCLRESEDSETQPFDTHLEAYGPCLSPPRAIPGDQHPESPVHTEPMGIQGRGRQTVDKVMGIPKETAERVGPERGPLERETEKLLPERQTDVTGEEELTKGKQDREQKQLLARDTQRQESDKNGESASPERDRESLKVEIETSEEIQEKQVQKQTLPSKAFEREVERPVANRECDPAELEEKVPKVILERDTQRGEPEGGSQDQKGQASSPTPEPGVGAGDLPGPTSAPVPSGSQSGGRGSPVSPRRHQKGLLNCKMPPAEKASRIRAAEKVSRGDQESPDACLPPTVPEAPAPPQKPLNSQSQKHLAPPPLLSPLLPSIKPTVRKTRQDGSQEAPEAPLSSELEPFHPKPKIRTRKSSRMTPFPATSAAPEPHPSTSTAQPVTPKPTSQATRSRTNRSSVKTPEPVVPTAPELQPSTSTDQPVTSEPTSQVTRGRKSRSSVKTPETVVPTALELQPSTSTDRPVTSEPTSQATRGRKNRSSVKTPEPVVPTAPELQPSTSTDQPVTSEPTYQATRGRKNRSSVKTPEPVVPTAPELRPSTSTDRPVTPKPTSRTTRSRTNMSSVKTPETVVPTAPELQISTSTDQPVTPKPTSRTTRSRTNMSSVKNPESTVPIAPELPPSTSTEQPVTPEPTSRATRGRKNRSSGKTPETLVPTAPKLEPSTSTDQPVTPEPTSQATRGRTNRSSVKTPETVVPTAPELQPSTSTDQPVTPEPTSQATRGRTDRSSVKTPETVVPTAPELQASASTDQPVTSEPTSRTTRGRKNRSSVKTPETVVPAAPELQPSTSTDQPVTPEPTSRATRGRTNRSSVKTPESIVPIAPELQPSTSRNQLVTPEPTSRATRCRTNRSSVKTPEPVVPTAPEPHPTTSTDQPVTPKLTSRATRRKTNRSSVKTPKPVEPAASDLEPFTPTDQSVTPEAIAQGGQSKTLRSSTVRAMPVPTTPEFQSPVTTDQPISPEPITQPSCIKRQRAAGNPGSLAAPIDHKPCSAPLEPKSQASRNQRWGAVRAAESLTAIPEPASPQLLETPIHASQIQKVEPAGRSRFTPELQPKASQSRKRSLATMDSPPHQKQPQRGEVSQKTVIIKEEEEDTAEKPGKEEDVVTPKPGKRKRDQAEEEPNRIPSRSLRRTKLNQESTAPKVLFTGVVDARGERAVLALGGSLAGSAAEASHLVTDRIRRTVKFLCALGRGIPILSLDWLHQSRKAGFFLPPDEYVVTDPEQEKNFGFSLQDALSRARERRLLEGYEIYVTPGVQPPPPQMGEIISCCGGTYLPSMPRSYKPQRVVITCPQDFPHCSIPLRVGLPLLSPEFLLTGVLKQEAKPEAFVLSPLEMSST

± gives the standard deviation of the averaged measurements. The entries are a selection whose mix differs from that of the whole data set. Small differences around the control level are noise.

UniProt Q14498 and related entries: the NP40-soluble protein abundance by setting is: (concentration: 0.1mM) 1.03 ± 0.027; (concentration: 0.5mM) 1.42 ± 0.11; (concentration: 1mM) 1.59 ± 0.14; (concentration: 2mM) 1.72 ± 0.12; (concentration: 4mM) 1.84 ± 0.12; (concentration: 6mM) 1.93 ± 0.13. Besides, the NP40-soluble protein abundance is, setting by setting: (concentration: 8mM) 1.98 ± 0.15; (concentration: 10mM) 2.02 ± 0.2.
On to UniProt Q15036 and related entries, for which the NP40-soluble protein abundance is, setting by setting: (concentration: 0.1mM) 1.08 ± 0.096; (concentration: 0.5mM) 0.911 ± 0.12; (concentration: 1mM) 0.88 ± 0.17; (concentration: 2mM) 0.835 ± 0.14; (concentration: 4mM) 0.853 ± 0.15; (concentration: 6mM) 0.808 ± 0.18. Moreover, the NP40-soluble protein abundance (concentration: 8mM) is 0.808 ± 0.12 and the NP40-soluble protein abundance (concentration: 10mM) was found to be 0.849 ± 0.16.
As to RHEB (UniProt Q15382), the NP40-soluble protein abundance reads like this: (concentration: 0.1mM) 1 ± 0.037; (concentration: 0.5mM) 1.04 ± 0.037.
The matching figures for SF3B4 (UniProt Q15427): 1.03 ± 0.096 and 1.09 ± 0.091.
The matching figures for KIF22 (UniProt Q14807): 1.11 ± 0.084 and 1.19 ± 0.053.
UniProt Q16630 and related entries: the NP40-soluble protein abundance reads like this: (concentration: 0.1mM) 1.16 ± 0.075; (concentration: 0.5mM) 2.02 ± 0.12; (concentration: 1mM) 2.36 ± 0.24; (concentration: 2mM) 2.68 ± 0.27; (concentration: 4mM) 2.89 ± 0.3; (concentration: 6mM) 3.09 ± 0.32. Besides, the NP40-soluble protein abundance worked out at 3.03 ± 0.2 (concentration: 8mM) and 3.05 ± 0.28 (concentration: 10mM).
On to PSMD6 (UniProt Q15008), for which the NP40-soluble protein abundance reads like this: (concentration: 0.1mM) 0.991 ± 0.0067; (concentration: 0.5mM) 0.971 ± 0.025; (concentration: 1mM) 0.959 ± 0.015; (concentration: 2mM) 0.9 ± 0.021; (concentration: 4mM) 0.893 ± 0.022; (concentration: 6mM) 0.889 ± 0.048. In addition, the NP40-soluble protein abundance by setting is: (concentration: 8mM) 0.921 ± 0.032; (concentration: 10mM) 0.886 ± 0.025.
As for UniProt Q16181 and related entries, the NP40-soluble protein abundance is, setting by setting: (concentration: 0.1mM) 1.01 ± 0.057; (concentration: 0.5mM) 1.02 ± 0.095; (concentration: 1mM) 0.891 ± 0.15; (concentration: 2mM) 0.979 ± 0.023; (concentration: 4mM) 0.9086 ± 0.0056; (concentration: 6mM) 0.963 ± 0.076. For the same target, the NP40-soluble protein abundance (concentration: 8mM) was 0.957 ± 0.026 and the NP40-soluble protein abundance (concentration: 10mM) was determined as 0.911 ± 0.046.
With EFTUD2 (UniProt Q15029), the NP40-soluble protein abundance (concentration: 0.1mM) came to 1.01 ± 0.041; the NP40-soluble protein abundance (concentration: 0.5mM) was determined as 1.06 ± 0.069; the NP40-soluble protein abundance (concentration: 1mM) amounted to 1.12 ± 0.04; the NP40-soluble protein abundance (concentration: 2mM) worked out at 1.16 ± 0.047; the NP40-soluble protein abundance (concentration: 4mM) worked out at 1.21 ± 0.047; the NP40-soluble protein abundance (concentration: 6mM) stood at 1.26 ± 0.075. Further, the NP40-soluble protein abundance (concentration: 8mM) was 1.41 ± 0.056 and the NP40-soluble protein abundance (concentration: 10mM) amounted to 1.42 ± 0.12.
As for LAGE3 (UniProt Q14657), the NP40-soluble protein abundance was 0.982 ± 0.056 (concentration: 0.1mM); 0.903 ± 0.044 (concentration: 0.5mM); 0.907 ± 0.071 (concentration: 1mM); 0.909 ± 0.073 (concentration: 2mM); 0.901 ± 0.029 (concentration: 4mM); 0.881 ± 0.072 (concentration: 6mM). In addition, the NP40-soluble protein abundance (concentration: 8mM) came to 0.903 ± 0.034 and the NP40-soluble protein abundance (concentration: 10mM) turned out to be 0.882 ± 0.011.
Regarding PDCD11 (UniProt Q14690), the NP40-soluble protein abundance turned out to be 1.01 ± 0.032 (concentration: 0.1mM); 1.06 ± 0.039 (concentration: 0.5mM); 1.09 ± 0.092 (concentration: 1mM); 1.14 ± 0.056 (concentration: 2mM); 1.29 ± 0.062 (concentration: 4mM); 1.5 ± 0.13 (concentration: 6mM). The NP40-soluble protein abundance runs as follows: (concentration: 8mM) 1.75 ± 0.073; (concentration: 10mM) 2.06 ± 0.15.
Turning to MDC1 (UniProt Q14676), the NP40-soluble protein abundance worked out at 1.075 ± 0.0064 (concentration: 0.1mM); 1.34 ± 0.028 (concentration: 0.5mM); 1.45 ± 0.11 (concentration: 1mM); 1.57 ± 0.11 (concentration: 2mM); 1.74 ± 0.13 (concentration: 4mM); 1.89 ± 0.18 (concentration: 6mM). The NP40-soluble protein abundance (concentration: 8mM) was 1.88 ± 0.13 and the NP40-soluble protein abundance (concentration: 10mM) was 1.99 ± 0.15.
